Results of single-concentration screens

Source: ChEMBL document CHEMBL3988442, “University of Dundee, Small-Polar-MMV Screening Library” (2021).

Mtb cholesterol medium: 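Whole-cell growth test on Mycobacterium tuberculosis, read after 4 days in a medium based on cholesterol and the lipid DPPC; the read-out is not stated. Concentration: 50 µM. Higher reads as more growth inhibition (inferred: compounds with an IC50 in retests scored well above the rest). Of about 69,000 compounds tested this way, about 370 (0.54%) reached 50% or more in at least one test.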
Mtb glucose medium: 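Growth of Mycobacterium tuberculosis over 3 days (7H9 medium with glucose and tyloxapol); the read-out is not stated. Compounds at 50 µM. The record gives no direction; compounds that gave an IC50 in retests scored well above the rest, so higher reads as more growth inhibition. Of about 69,000 compounds tested this way, about 760 (1.1%) reached 50% or more in at least one test.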

Results are given as percent effect.
How 0% and 100% were set is not recorded. Most values in the screen are low, and negative values occur.
The compounds are a random part of those screened.
Two or more numbers in one place are separate tests of the same structure; such repeats can differ widely.

structure | Mtb cholesterol medium | Mtb glucose medium
CCOc1ccccc1-c1noc(CN(C)Cc2cnn(C)c2)n1 | -12.72 | -11.08
CN(C)C(=O)C1CN(c2ncccn2)CCN1C (stereo not drawn) | 6.807 | 22.17
COc1cc(NC(=O)Cn2ccc3sc(C)cc3c2=O)cc(OC)c1 | -0.6246 | 5.907
CC1CCCCN1CCNC(=O)c1scnc1Cl (stereo not drawn) | -15.31 | -9.423
Cc1nc(CN2CCC(CNC(=O)C3CCOC3)CC2)oc1C (stereo not drawn) | 3.862 | -37.76 and 9.731
CN(C)S(=O)(=O)N1CCCC(c2nccn2Cc2cccnc2)C1 (stereo not drawn) | 2.816 | -5.576
OCC1CCCN1c1cc(N2CCC(OC3CCCC3)CC2)ncn1 (stereo not drawn) | 10.03 | 71.33
CSc1ncc(CNC(C)c2cnn(-c3ccccc3)c2C)cn1 (stereo not drawn) | 13.24 | 2.465 and 4.777
COc1ccc(C(NC(=O)c2cccc[n+]2[O-])C2CC2)cc1 (stereo not drawn) | -0.9695 | -14.77
CC(=O)N1CCC(Nc2cccc(OC(F)F)c2C)CC1 | 12.81 | 6.657
CC(C)CCn1[nH]c(CNc2ccc(F)cc2)nc1=O | -0.2447 | 25.47
CN(C(=O)c1ccon1)[C@@H]1CCC[C@@H](Oc2ccccc2)[C@@H]1O | -7.611 | -15.43
O=C(c1cnccn1)N1CCc2c(COCC3CC3)cncc2C1 | -8.997 | 17.16
O=C(CCc1cn[nH]c1)N1C[C@H](CO)C[C@H](CN2CCOCC2)C1 | 1.417 | -18.65
O=C(c1ccncc1F)N1CCCC(c2nccn2CC2CCC2)C1 (stereo not drawn) | 16.36 | 12.97
Cc1noc(C)c1CN(C)C(=O)c1n[nH]c(N)c1-c1ccccc1 | -5.651 | 12.01
Cn1ccnc1SCc1nc(C(C)(C)NC(=O)OC(C)(C)C)no1 | -28.3 | -5.68
Cc1nc(N)sc1C(=O)N1CCCC(c2nccn2CCCN(C)C)C1 (stereo not drawn) | 13.66 | 5.115
CN(CC(=O)Nc1ccncc1)CC1CCCN1c1cccnn1 (stereo not drawn) | -6.738 | -20.32 and -10.27
O=C1C(Sc2cnn[nH]2)CCCN1c1ccccc1F (stereo not drawn) | 11.51 | 25.03
CCCN1CCC(N2CCN(c3cccc(C)n3)CC2)CC1 | -3.468 | -21.25
Cc1nc(C2NC3(CCCC3)C(=O)N2CC2CC2)cs1 (stereo not drawn) | -7.053 | 13.92
c1ccc(-c2cnc(CN3CCCC3Cn3cncn3)o2)cc1 (stereo not drawn) | -2.895 | 11.24
CSCc1cccc(S(=O)(=O)NCCCn2ccnc2)c1 | -9.068 | 8.712
O=C(O)C(F)(F)F.[H][C@]12CCC[C@@]1(COCc1ccncc1)CN(C(=O)c1occc1C)C2 | 5.86 | 40.27
CNC(=O)CCS(=O)(=O)Cc1nnnn1-c1ccccc1 | -5.162 | 13 and 1.25
COc1ccc(CNC(=O)Nc2cccnc2N2CCCC2)cc1O | -13.52 | 3.295
CCN1CCN2CCCN(S(=O)(=O)c3ccc(C)cc3C)C2C1=O (stereo not drawn) | -4.291 | 1.392 and 5.98
Cc1ccc(CCNC(=O)Cn2nc(C)n(Cc3ccccc3)c2=O)s1 | -3.126 | -4.025
COc1ccc(C(=O)Nc2ccccc2-c2ccc(=O)n(C)n2)nn1 | 15.41 | 9.413 and -1.66
Cn1ncc(C2CC(=O)NCc3nc4sccn4c32)c1C1CC1 (stereo not drawn) | 18.54 | -14.17 and 3.952
Cc1cc(CN(C)C2CCCN(Cc3noc(C4CC4)n3)C2)on1 (stereo not drawn) | -22.67 | -18.83
NC(=O)CC1CCN(S(=O)(=O)N2CCCC2c2ccco2)CC1 (stereo not drawn) | -9.141 | 4.482 and -3.11
CC1CCN(C(=O)C2CCN(S(C)(=O)=O)CC2)c2ccccc21 (stereo not drawn) | 15.94 | 11.05 and 19.38
COc1cccc(CN(C)Cc2cc(C#N)ccc2F)c1OC | -6.348 | -5.757
Cl.Nc1nc(Nc2ccccc2)cc(N2CCNCC2)n1 | -5.067 | -17.13
Cc1ccc(S(=O)(=O)NC(=O)c2c(C)noc2C(C)C)cc1C | 5.715 | -3.514 and 16.87
COc1c(C)cnc(CN2CCn3c(nnc3C3CC3)C2)c1C | -26.07 | -30.78
CC(NC(=O)c1cccs1)C(=O)NS(=O)(=O)Cc1ccc(C#N)cc1 (stereo not drawn) | -3.077 | 16.05
Cc1cc(C)cc(C(=O)Nc2cn[nH]c2)c1 | 1.338 | 3.524
CNc1cc(CCNC(=O)CC(C)C)nc(-c2ccccn2)n1 | 3.889 and -8.802 | -10.76
Cc1cncc(Oc2ccc(CO)cc2)n1 | -53.06 | 10.62 and 10.05
Cc1nccc(-c2ccccc2)c1C(=O)N1CC[C@](C)(O)C(C)(C)C1 | -26.59 | 4.522
CCOCC(=O)NC1(c2cccc(Br)c2)CC1 | -1.279 | 20.44
O=C(O)C(F)(F)F.O=C1N(Cc2cccc(F)c2)CCC12CCN(c1ccccn1)CC2 | -2.232 | 9.87
Cn1cnc(S(=O)(=O)N2CCCC2c2cnccn2)c1 (stereo not drawn) | 0.218 | -7.318
CCNC(=O)N1C[C@@H](NC(C)=O)[C@H](c2ccc(C)o2)C1 | -24.42 | -11.11
[H][C@@]12CN(C(=O)C3CCOCC3)C[C@]1([H])OCCN2CCN(C)C | 8.785 | 16.17 and -2.193
CN(Cc1cc(F)cc2cccnc12)CC1CCN(CCO)CC1 | -12.17 | -4.427
OC1(c2ccccc2F)CCN(Cc2ccccc2N2CCCC2)CC1 | 10.76 | 36.19
COc1ncccc1CNC(=O)N1CCCC1c1ccsc1 (stereo not drawn) | -1.211 | -12.66
Cc1nc(N2CCCC(N3CCCC3)C2)c2cnn(C)c2n1 (stereo not drawn) | -10.25 and -7.548 | -1.477
CS(=O)(=O)N1CCN(c2cc(-n3cccc3)ncn2)CC1 | -1.284 | 12.18 and 12.75
Cc1ccc(N2CCN(c3ccccc3C)CC2C)nn1 (stereo not drawn) | 16.99 | 39.91 and 11.41
Cl.Cn1cc([C@@H]2CN(S(=O)(=O)c3cccs3)C[C@H]2N)c2ccncc21 | 11.39 and 4.941 | 17.92
CN1CCN(c2ccc(F)cc2NC(=O)NCCn2ccnc2)CC1 | -11.04 | -21.65
O=C(c1ccccn1)N1CCC2(CNS(=O)(=O)c3cnccc3O2)C1 (stereo not drawn) | -5.743 | -1.924
Cc1cnn(CCC(=O)N2CCCN(c3ncccc3C#N)CC2)c1 | 9.425 | 8.224
[H][C@]12COC[C@@H](NS(C)(=O)=O)[C@@]1([H])CN(Cc1ccco1)C2 | -0.1412 | 13.69
COCCCNC(=O)CN1CCC(c2ccccc2)C1 (stereo not drawn) | -16.18 | -6.947
Cc1ccc(C(=O)NC2CCN(C)CC2)cc1N(C)S(C)(=O)=O | 11.37 | 11.19 and 0.708
Cc1cc(C)c(CNC(=O)NCC2Cc3ccccc32)c(=O)[nH]1 (stereo not drawn) | -15.98 | -23.31
CC(c1nc(C2CC2)no1)N1CCN(Cc2ccccc2)CC1 (stereo not drawn) | -8.103 | -19.57
O=C(Nc1cccnc1)C1CN(C(=O)c2ccc3c(c2)OCO3)C1 | -2.451 | -4.735
Cl.O=C(c1ccccc1)N1CCC2(CC1)CNc1c(F)cccc12 | 3.719 | 6.296
COc1cc(OC)c(-n2nnc(C(=O)O)c2C)cc1Cl | 9.271 | -28.73
O=C1CCCN1CC1CCCCN1C(=O)Nc1cccnc1 (stereo not drawn) | 2.823 | 3.807
CCc1nnc(Sc2nn3cc(C)nc3s2)n1C | -7.214 | 12.37
CCOC(=O)[C@@H]1[C@@H](O)C(=O)N(C)C12CCN(C(=O)c1ccco1)CC2 | -17.12 | -7.187
COC(=O)c1cc(NC(=O)CCc2cscn2)ccc1C | 9.118 | -0.7283
O=C(Nc1cccn(Cc2ccccc2)c1=O)c1ccncc1F | -24.78 | -7.207
Cc1cc(C(F)(F)F)nc(C2CCCN2S(C)(=O)=O)n1 (stereo not drawn) | -10.83 and -0.2397 | -20.98
COCCN1CCN(CC(O)c2cc(OC)ccc2OC)CC1 (stereo not drawn) | -15.3 and -4.276 | -20.76
CCC(=O)N1CCN(c2cc(N(C)C)cnn2)CC1 | -0.2431 | 5.944 and -1.223
CN(Cc1ccncc1)C(=O)c1ccc(F)c(NS(C)(=O)=O)c1 | 10.72 | 13.13
O=C(CC1CCCC1)N[C@H]1CN(Cc2c[nH]cn2)C[C@@H]1C1CC1 | -3.253 | 14.4
CNC(=O)[C@@H]1C[C@@H](N)CN1C1CCN(Cc2ccccn2)CC1 | -24.02 | -81.39
O=c1[nH]c2cc3c(cc2cc1CN1CCCC1c1ccccn1)OCO3 (stereo not drawn) | -13.25 | -53.34
Cc1ccc(-c2nc(CN3CCCCC3Cn3cncn3)no2)cc1 (stereo not drawn) | -13.92 | 12.44
CCn1ccnc1CN1CCN(c2ncnc3ccccc23)CC1 | -10.66 | 7.221

6 of the entries, repeated:

| structure | Mtb cholesterol medium | Mtb glucose medium |
|---|---|---|
| `CN(Cc1ccncc1)C(=O)c1ccc(F)c(NS(C)(=O)=O)c1` | 10.72 | 13.13 |
| `Cc1nc(CN2CCC(CNC(=O)C3CCOC3)CC2)oc1C` (stereo not drawn) | 3.862 | -37.76 and 9.731 |
| `O=C(O)C(F)(F)F.[H][C@]12CCC[C@@]1(COCc1ccncc1)CN(C(=O)c1occc1C)C2` | 5.86 | 40.27 |
| `COCCCNC(=O)CN1CCC(c2ccccc2)C1` (stereo not drawn) | -16.18 | -6.947 |
| `CC1CCN(C(=O)C2CCN(S(C)(=O)=O)CC2)c2ccccc21` (stereo not drawn) | 15.94 | 11.05 and 19.38 |
| `O=C1CCCN1CC1CCCCN1C(=O)Nc1cccnc1` (stereo not drawn) | 2.823 | 3.807 |